Experimental findings from patent publication US20220025032A1 are described below.

The chains behind the UniProt entries cited, without tags or fusion partners. Where a name states a change or a piece, a line headed by the entry shows the natural chain unless it says otherwise.
UniProt P35070: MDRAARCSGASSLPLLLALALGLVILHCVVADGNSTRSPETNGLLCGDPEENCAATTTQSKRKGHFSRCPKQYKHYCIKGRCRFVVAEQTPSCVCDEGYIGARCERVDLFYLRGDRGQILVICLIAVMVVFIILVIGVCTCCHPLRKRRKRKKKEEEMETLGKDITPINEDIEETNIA

The target in test [1] is membrane-bound human BTC on 293F-hBTC cells (human) (UniProt P35070). The test can be described thus: flow cytometry on 293F-hBTC cells. A general note: In flow cytometry, cells or beads pass a laser one at a time.
Test [2] shares this target. The test is described as follows: flow cytometry on 293F-hBTC cells, anti-human Fab-FITC.

No constants are given. Whether binding was seen depends on the method and setting. Some results given as binding are weak or reduced against the parent protein; the word gives no strength.

B1: NVS13 (bispecific antibody)
heavy: QVQLLESGGGLVQPGGSLRLSCAASGFTFSSYAMSWVRQAPGKGLEWVSGLGHVGYTTYTDSVKGRFTISRDNSKNTLYLQMNSLRAEDTAVYYCARDYLDFGYYFDVWGQGTLVTVSSASTKGPSVFPLAPSSKSTSGGTAALGCLVKDYFPEPVTVSWNSGALTSGVHTFPAVLQSSGLYSLSSVVTVPSSSLGTQTYICNVNHKPSNTKVDKRVEPKSCGSGGGGSGGGGSGGGEVQLVESGGGLVQPGGSLRLSCTASGFSLTDYYYMTWVRQAPGKGLEWVGFIDPDDDPYYATWAKGRFTISRDNSKNTLYLQMNSLRAEDTAVYYCAGGDHNSGWGLDIWGQGTLVTVSSASTKGPSVFPLAPSSKSTSGGTAALGCLVKDYFPEPVTVSWNSGALTSGVHTFPAVLQSSGLYSLSSVVTVPSSSLGTQTYICNVNHKPSNTKVDKRVEPKSC
light: SYELTQPLSVSVALGQTARITCSGDKIGKKYVHWYQQKPGQAPVLVIYDDSDRPSGIPERFSGSNSGNTATLTISRAQAGDEADYYCQAWDMQSVVFGGGTKLTVLGQPKAAPSVTLFPPSSEELQANKATLVCLISDFYPGAVTVAWKADSSPVKAGVETTTPSKQSNNKYAASSYLSLTPEQWKSHRSYSCQVTHEGSTVEKTVAPTECSGSGGGGSGGGGSGGGEIVMTQSPSTLSASVGDRVIITCQASEIIHSWLAWYQQKPGKAPKLLIYLASTLASGVPSRFSGSGSGAEFTLTISSLQPDDFATYYCQNVYLASTNGANFGQGTKLTVLKRTVAAPSVFIFPPSDEQLKSGTASVVCLLNNFYPREAKVQWKVDNALQSGNSQESVTEQDSKDSTYSLSSTLTLSKADYEKHKVYACEVTHQGLSSPVTKSFNRGEC
Take B1: the binding result in test [1] and in test [2] was “binds” each time.

B2: NVS3 (Fab, V domains shown)
VH: QVQLLESGGGLVQPGGSLRLSCAASGFTFSSYAMSWVRQAPGKGLEWVSGLGHVGYTTYTDSVKGRFTISRDNSKNTLYLQMNSLRAEDTAVYYCARDYLDFGYYFDVWGQGTLVTVSS
VL: SYELTQPLSVSVALGQTARITCSGDKIGKKYVHWYQQKPGQAPVLVIYDDSDRPSGIPERFSGSNSGNTATLTISRAQAGDEADYYCQAWDMQSVVFGGGTKLTVLG
For the molecule B2, the binding entry in test [1] and in test [2] was “binds” throughout.

B3: NVS4 (Fab, V domains shown)
VH: QVQLLESGGGLVQPGGSLRLSCAASGFTFSRYWISWVRQAPGKGLEWVSYIDSTGTFINYADSVKGRFTISRDNSKNTLYLQMNSLRAEDTAVYYCARGGSLFDYWGQGTLVTVSS
VL: DIQMTQSPSSLSASVGDRVTITCRASQGIISYLGWYQQKPGKAPKLLIYAASSLQSGVPSRFSGSGSGTDFTLTISSLQPEDFATYYCQQYDALNTFGQGTKVEIKR
As for B3, in test [1], the binding result is given as “binds”.
